In paper PMC5643311:
Residue numbers refer to the chain shown, from its start. No constants are given. Whether binding was seen depends on the method and setting. In cells and extracts the contact can be indirect. Some binding calls cover weakened binding; strength is not graded here. For some of these results: Tags and fused reporters may be left off the sequences shown.

Amino acid sequences for entries named in this document (tags omitted).
UniProt Q9UBN7: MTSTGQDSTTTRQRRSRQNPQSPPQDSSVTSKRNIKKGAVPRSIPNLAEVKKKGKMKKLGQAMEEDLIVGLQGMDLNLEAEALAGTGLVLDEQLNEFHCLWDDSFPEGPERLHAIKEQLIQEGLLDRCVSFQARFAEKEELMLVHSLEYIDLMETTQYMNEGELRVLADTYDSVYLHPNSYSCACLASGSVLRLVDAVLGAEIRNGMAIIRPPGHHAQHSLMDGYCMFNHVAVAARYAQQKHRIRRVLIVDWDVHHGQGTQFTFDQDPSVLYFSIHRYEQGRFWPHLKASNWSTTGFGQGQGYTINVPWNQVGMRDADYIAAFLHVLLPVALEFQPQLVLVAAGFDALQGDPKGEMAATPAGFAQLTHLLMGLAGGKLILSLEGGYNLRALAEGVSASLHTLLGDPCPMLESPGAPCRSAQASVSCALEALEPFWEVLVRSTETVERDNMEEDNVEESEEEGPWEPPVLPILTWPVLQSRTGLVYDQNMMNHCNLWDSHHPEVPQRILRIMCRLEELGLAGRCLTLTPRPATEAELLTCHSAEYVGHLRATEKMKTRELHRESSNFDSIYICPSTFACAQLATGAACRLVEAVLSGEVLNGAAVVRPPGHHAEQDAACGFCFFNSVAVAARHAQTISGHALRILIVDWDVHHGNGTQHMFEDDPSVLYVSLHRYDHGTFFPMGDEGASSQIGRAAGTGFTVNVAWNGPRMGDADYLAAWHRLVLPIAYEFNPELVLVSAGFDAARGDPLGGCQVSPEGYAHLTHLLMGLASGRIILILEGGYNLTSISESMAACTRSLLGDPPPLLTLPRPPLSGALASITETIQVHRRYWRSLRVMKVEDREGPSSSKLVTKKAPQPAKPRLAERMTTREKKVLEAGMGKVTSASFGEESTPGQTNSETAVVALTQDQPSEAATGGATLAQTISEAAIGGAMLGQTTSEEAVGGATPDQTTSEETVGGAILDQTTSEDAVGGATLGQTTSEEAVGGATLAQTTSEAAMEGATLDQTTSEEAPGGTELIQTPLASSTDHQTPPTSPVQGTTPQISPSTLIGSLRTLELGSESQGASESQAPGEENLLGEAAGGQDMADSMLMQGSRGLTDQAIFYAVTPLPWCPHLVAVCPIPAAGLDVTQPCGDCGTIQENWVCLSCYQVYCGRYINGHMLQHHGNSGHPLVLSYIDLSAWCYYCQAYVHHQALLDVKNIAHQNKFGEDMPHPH

Legend:
[1] = target: T1, Flag-MIIP S303A (human) (UniProt Q5JXC2); assay: co-IP; cells expressing MIIP S303A, with or without EGF (Supplementary Fig. 4a; legend not shown, method taken from the paper's other experiments in cells)
T1 sequence: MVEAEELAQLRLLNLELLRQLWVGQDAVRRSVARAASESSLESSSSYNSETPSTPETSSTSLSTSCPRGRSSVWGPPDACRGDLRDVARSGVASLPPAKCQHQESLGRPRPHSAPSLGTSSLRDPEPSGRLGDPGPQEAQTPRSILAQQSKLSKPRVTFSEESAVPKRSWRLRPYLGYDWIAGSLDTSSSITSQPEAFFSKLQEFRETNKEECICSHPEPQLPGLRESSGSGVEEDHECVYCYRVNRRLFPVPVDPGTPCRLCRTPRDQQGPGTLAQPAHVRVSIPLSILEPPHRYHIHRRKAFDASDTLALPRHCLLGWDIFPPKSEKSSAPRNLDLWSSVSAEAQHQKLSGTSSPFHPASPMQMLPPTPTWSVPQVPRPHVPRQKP

[2] = target: T2, migration and invasion inhibitory protein (MIIP), endogenous (human (endogenous in HCT116, SW480)) (UniProt Q5JXC2); assay: co-IP; SW620 cells with EGF, HDAC6–MIIP–RelA complex, dependent on PKCε activation (Supplementary Fig. 6c; legend not shown)
T2 sequence (chain, phosphoserine at 303 in EGF-stimulated cells): T1 sequence with A303S

[3] = target: T2, migration and invasion inhibitory protein (MIIP), endogenous (human (endogenous in HCT116, SW480)); assay: co-IP; two-step: HCT116 cells with EGF (100 ng/ml, 30 min); immunoprecipitation with anti-Flag (Flag-RelA), elution with Flag peptides, second immunoprecipitation with anti-MIIP; immunoblot
[4] = target: T2, migration and invasion inhibitory protein (MIIP), endogenous (human (endogenous in HCT116, SW480)); assay: co-IP; CaCo2 cells with EGF, trimer complex (Supplementary Fig. 4h; legend not shown)

binding [1]: binds
binding [2]: binds
binding [3]: binds
binding [4]: binds
Substance: histone deacetylase 6 (HDAC6), endogenous (from UniProt Q9UBN7 1-1215) (enzyme)
